# The other results are listed elsewhere or left out.
# B1: TAL6-6LysM (Trichoderma atroviride) (protein)
# chain: AASKLGVPQPAQRDQVNCQLYAVQPNDNCIDISSKNNITYAQLLSWNPSLSSTCSNLASLNSSSICVSNPKGTFSISSNTVGATDIATTTAPVPSPTLDQTTSRCAKYYQVSDGDDCSHLTAQFAITLKDFIFLNSEVWQNCTNLELGYYYCVEPVGYISTYPGYLPTATTKPFNQTSATSLPYDGDPWARFSSNSSVIPIANGTRVDCYSYVYVKNLTENLFADCWNMASMYEITREELVLWNPSLGNDGSSGSNLSGAEASQVASSIAIPTTAPSSITTNLYTYPCTVAANISYCVALVSSTGALPTNTAPPGPHASGEISNCTAWFAPEAYDTCKSILDIFEMSFANFYKMNPSVGPDCSGLAVGTNYCVSTYPNGEDPNDDWDGDDSIPSISPTGIITPTPTQSGMVSNCNKFYDVHSNDGCSAIASSQHVDLSSLYKWNPAIKTDCSGLQASVYVCIGILTTSMSTTSKLPTTTSKPSTTSKPPTGITTPTPTQSGMVKNCNKFYDVHSGDGCSAIASSQKVNLSSFYLWNPAVKTDCSGLQASVFVCIGTLTTSMSTTTSKLPTTTSKPSTTSKPPTGIITPTPTQNGMVKNCNKFYDVHSGDGCSAIASSQKVNLSSFYLWNPAVKTDCSGLQASVFVCVGTATTTTAAGITTPTPTQSGMVSGCNKFYDVHAGDGCSAIASSQKIALSSLYKWNPAVKTDCSGLQASVYICIGVGNAAAARVTGAAASFLEQKLISEEDLNSAVDHHHHHH
# Tests used:
# Assay in all cases: glycan array binding signal (z-score within array); higher = stronger binding
# Details in all cases: glycan notation: IUPAC condensed, linker removed
# [1] = target: GlcNAc(b1-2)Gal(b1-3)GalNAc
# Procedure, shortened: (§1)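 Arrays were curated from the Consortium for Functional Glycomics database, 3228 in total, and kept only where the protein sequence was available. Binding is expressed as a within-array Z-score. This score was averaged across arrays of the same protein sequence at different concentrations or buffers and across linkers, and negative values can be read as non-binding.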
# [2] = target: GlcNAc(b1-2)Man(a1-3)[GlcNAc(b1-2)Man(a1-6)]Man(b1-4)GlcNAc(b1-4)GlcNAc
# Procedure, shortened: as §1
# [3] = target: GlcNAc(b1-2)Man(a1-3)[GlcNAc(b1-2)Man(a1-6)]Man(b1-4)GlcNAc(b1-4)[Fuc(a1-6)]GlcNAc
# Procedure, shortened: as §1
# [4] = target: GlcNAc(b1-2)Man(a1-3)[GlcNAc(b1-4)][GlcNAc(b1-2)Man(a1-6)]Man(b1-4)GlcNAc(b1-4)GlcNAc
# Procedure, shortened: as §1
# [5] = target: GlcNAc(b1-2)Man(a1-3)[GlcNAc(b1-4)][GlcNAc(b1-2)Man(a1-6)]Man(b1-4)GlcNAc(b1-4)[Fuc(a1-6)]GlcNAc
# Procedure, shortened: as §1
# [6] = target: GlcNAc(b1-2)[GlcNAc(b1-4)]Man(a1-3)[GlcNAc(b1-2)Man(a1-6)]Man(b1-4)GlcNAc(b1-4)GlcNAc
# Procedure, shortened: as §1
# [7] = target: GlcNAc(b1-2)[GlcNAc(b1-4)]Man(a1-3)[GlcNAc(b1-4)][GlcNAc(b1-2)Man(a1-6)]Man(b1-4)GlcNAc(b1-4)GlcNAc
# Procedure, shortened: as §1
# [8] = target: GlcNAc(b1-2)[GlcNAc(b1-4)]Man(a1-3)[GlcNAc(b1-4)][GlcNAc(b1-2)[GlcNAc(b1-6)]Man(a1-6)]Man(b1-4)GlcNAc(b1-4)GlcNAc
# Procedure, shortened: as §1
# [9] = target: GlcNAc(b1-2)[GlcNAc(b1-4)]Man(a1-3)[GlcNAc(b1-4)][GlcNAc(b1-2)[GlcNAc(b1-6)]Man(a1-6)]Man(b1-4)GlcNAc(b1-4)[Fuc(a1-6)]GlcNAc
# Procedure, shortened: as §1
# [10] = target: GlcNAc(b1-2)[GlcNAc(b1-6)]Man(a1-6)[GlcNAc(b1-2)Man(a1-3)]Man(b1-4)GlcNAc(b1-4)GlcNAc
# Procedure, shortened: as §1
# [11] = target: GlcNAc(b1-2)[GlcNAc(b1-6)]Man(a1-6)[GlcNAc(b1-2)Man(a1-3)]Man(b1-4)GlcNAc(b1-4)[Fuc(a1-6)]GlcNAc
# Procedure, shortened: as §1
# [12] = target: GlcNAc(b1-2)[GlcNAc(b1-6)]Man(a1-6)[GlcNAc(b1-4)][GlcNAc(b1-2)Man(a1-3)]Man(b1-4)GlcNAc(b1-4)GlcNAc
# Procedure, shortened: as §1
# GlcNAc(b1-3)Fuc = target: GlcNAc(b1-3)Fuc
# Procedure, shortened: as §1
# GlcNAc(b1-3)Gal = target: GlcNAc(b1-3)Gal
# Procedure, shortened: as §1
# [13] = target: GlcNAc(b1-3)Gal(b1-3)GalNAc
# Procedure, shortened: as §1
# GlcNAc(b1-3)Gal(b1-4)Glc = target: GlcNAc(b1-3)Gal(b1-4)Glc
# Procedure, shortened: as §1
# [14] = target: GlcNAc(b1-3)Gal(b1-4)GlcNAc
# Procedure, shortened: as §1
# [15] = target: GlcNAc(b1-3)Gal(b1-4)GlcNAc(b1-2)Man(a1-3)[GlcNAc(b1-3)Gal(b1-4)GlcNAc(b1-2)Man(a1-6)]Man(b1-4)GlcNAc(b1-4)GlcNAc
# Procedure, shortened: as §1
# [16] = target: GlcNAc(b1-3)Gal(b1-4)GlcNAc(b1-2)Man(a1-3)[GlcNAc(b1-3)Gal(b1-4)GlcNAc(b1-2)Man(a1-6)]Man(b1-4)GlcNAc(b1-4)[Fuc(a1-6)]GlcNAc
# Procedure, shortened: as §1
# [17] = target: GlcNAc(b1-3)Gal(b1-4)GlcNAc(b1-2)[GlcNAc(b1-3)Gal(b1-4)GlcNAc(b1-6)]Man(a1-6)[GlcNAc(b1-3)Gal(b1-4)GlcNAc(b1-2)Man(a1-3)]Man(b1-4)GlcNAc(b1-4)GlcNAc
# Procedure, shortened: as §1
# [18] = target: GlcNAc(b1-3)Gal(b1-4)GlcNAc(b1-3)Gal(b1-4)GlcNAc
# Procedure, shortened: as §1
# [19] = target: GlcNAc(b1-3)Gal(b1-4)GlcNAc(b1-3)Gal(b1-4)GlcNAc(b1-2)Man(a1-3)[GlcNAc(b1-3)Gal(b1-4)GlcNAc(b1-3)Gal(b1-4)GlcNAc(b1-2)Man(a1-6)]Man(b1-4)GlcNAc(b1-4)GlcNAc
# Procedure, shortened: as §1
# [20] = target: GlcNAc(b1-3)Gal(b1-4)GlcNAc(b1-3)Gal(b1-4)GlcNAc(b1-2)Man(a1-3)[GlcNAc(b1-3)Gal(b1-4)GlcNAc(b1-3)Gal(b1-4)GlcNAc(b1-2)Man(a1-6)]Man(b1-4)GlcNAc(b1-4)[Fuc(a1-6)]GlcNAc
# Procedure, shortened: as §1
# [21] = target: GlcNAc(b1-3)Gal(b1-4)GlcNAc(b1-3)Gal(b1-4)GlcNAc(b1-2)[GlcNAc(b1-3)Gal(b1-4)GlcNAc(b1-3)Gal(b1-4)GlcNAc(b1-6)]Man(a1-6)[GlcNAc(b1-3)Gal(b1-4)GlcNAc(b1-3)Gal(b1-4)GlcNAc(b1-2)Man(a1-3)]Man(b1-4)GlcNAc(b1-4)[Fuc(a1-6)]GlcNAc
# Procedure, shortened: as §1
# [22] = target: GlcNAc(b1-3)Gal(b1-4)GlcNAc(b1-3)Gal(b1-4)GlcNAc(b1-3)Gal(b1-4)GlcNAc(b1-2)Man(a1-3)[GlcNAc(b1-3)Gal(b1-4)GlcNAc(b1-3)Gal(b1-4)GlcNAc(b1-3)Gal(b1-4)GlcNAc(b1-2)Man(a1-6)]Man(b1-4)GlcNAc(b1-4)GlcNAc
# Procedure, shortened: as §1
# [23] = target: GlcNAc(b1-3)Gal(b1-4)GlcNAc(b1-3)Gal(b1-4)GlcNAc(b1-3)Gal(b1-4)GlcNAc(b1-2)Man(a1-3)[GlcNAc(b1-3)Gal(b1-4)GlcNAc(b1-3)Gal(b1-4)GlcNAc(b1-3)Gal(b1-4)GlcNAc(b1-2)Man(a1-6)]Man(b1-4)GlcNAc(b1-4)[Fuc(a1-6)]GlcNAc
# Procedure, shortened: as §1
# [24] = target: GlcNAc(b1-3)Gal(b1-4)GlcNAc(b1-3)Gal(b1-4)GlcNAc(b1-3)Gal(b1-4)GlcNAc(b1-2)[GlcNAc(b1-3)Gal(b1-4)GlcNAc(b1-3)Gal(b1-4)GlcNAc(b1-3)Gal(b1-4)GlcNAc(b1-6)]Man(a1-6)[GlcNAc(b1-3)Gal(b1-4)GlcNAc(b1-3)Gal(b1-4)GlcNAc(b1-3)Gal(b1-4)GlcNAc(b1-2)Man(a1-3)]Man(b1-4)GlcNAc(b1-4)[Fuc(a1-6)]GlcNAc
# Procedure, shortened: as §1
# [25] = target: GlcNAc(b1-3)Gal(b1-4)GlcNAc(b1-3)Gal(b1-4)GlcNAc(b1-3)Gal(b1-4)GlcNAc(b1-3)Gal(b1-4)GlcNAc(b1-2)Man(a1-3)[GlcNAc(b1-3)Gal(b1-4)GlcNAc(b1-3)Gal(b1-4)GlcNAc(b1-3)Gal(b1-4)GlcNAc(b1-3)Gal(b1-4)GlcNAc(b1-2)Man(a1-6)]Man(b1-4)GlcNAc(b1-4)GlcNAc
# Procedure, shortened: as §1
# [26] = target: GlcNAc(b1-3)Gal(b1-4)GlcNAc(b1-3)Gal(b1-4)GlcNAc(b1-3)Gal(b1-4)GlcNAc(b1-3)Gal(b1-4)GlcNAc(b1-2)Man(a1-3)[GlcNAc(b1-3)Gal(b1-4)GlcNAc(b1-3)Gal(b1-4)GlcNAc(b1-3)Gal(b1-4)GlcNAc(b1-3)Gal(b1-4)GlcNAc(b1-2)Man(a1-6)]Man(b1-4)GlcNAc(b1-4)[Fuc(a1-6)]GlcNAc
# Procedure, shortened: as §1
# [27] = target: GlcNAc(b1-3)Gal(b1-4)GlcNAc(b1-3)Gal(b1-4)GlcNAc(b1-3)Gal(b1-4)GlcNAc(b1-3)Gal(b1-4)GlcNAc(b1-2)[GlcNAc(b1-3)Gal(b1-4)GlcNAc(b1-3)Gal(b1-4)GlcNAc(b1-3)Gal(b1-4)GlcNAc(b1-3)Gal(b1-4)GlcNAc(b1-6)]Man(a1-6)[GlcNAc(b1-3)Gal(b1-4)GlcNAc(b1-3)Gal(b1-4)GlcNAc(b1-3)Gal(b1-4)GlcNAc(b1-3)Gal(b1-4)GlcNAc(b1-2)Man(a1-3)]Man(b1-4)GlcNAc(b1-4)[Fuc(a1-6)]GlcNAc
# Procedure, shortened: as §1
binder,measurement,setting,value
B1,glycan array binding signal (z-score),[1],-0.296
same,glycan array binding signal (z-score),[2],0.42
same,glycan array binding signal (z-score),[3],0.128
same,glycan array binding signal (z-score),[4],-1.17
same,glycan array binding signal (z-score),[5],-0.838
same,glycan array binding signal (z-score),[6],-0.559
same,glycan array binding signal (z-score),[7],1.15
same,glycan array binding signal (z-score),[8],0.223
same,glycan array binding signal (z-score),[9],0.451
same,glycan array binding signal (z-score),[10],-1.16
same,glycan array binding signal (z-score),[11],1.14
same,glycan array binding signal (z-score),[12],-0.275
same,glycan array binding signal (z-score),GlcNAc(b1-3)Fuc,-0.654
same,glycan array binding signal (z-score),GlcNAc(b1-3)Gal,-0.362
same,glycan array binding signal (z-score),[13],0.061
same,glycan array binding signal (z-score),GlcNAc(b1-3)Gal(b1-4)Glc,0.268
same,glycan array binding signal (z-score),[14],0.021
same,glycan array binding signal (z-score),[15],-1.2
same,glycan array binding signal (z-score),[16],0.823
same,glycan array binding signal (z-score),[17],1.76
same,glycan array binding signal (z-score),[18],0.291
same,glycan array binding signal (z-score),[19],0.252
same,glycan array binding signal (z-score),[20],0.195
same,glycan array binding signal (z-score),[21],-0.539
same,glycan array binding signal (z-score),[22],0.512
same,glycan array binding signal (z-score),[23],-0.35
same,glycan array binding signal (z-score),[24],-0.373
same,glycan array binding signal (z-score),[25],-0.734
same,glycan array binding signal (z-score),[26],1.32
same,glycan array binding signal (z-score),[27],2.31

# Rewritten with bars between the fields: part of the list above.
binder | measurement | setting | value
B1 | glycan array binding signal (z-score) | [8] | 0.223
same | glycan array binding signal (z-score) | [9] | 0.451
same | glycan array binding signal (z-score) | [10] | -1.16
same | glycan array binding signal (z-score) | [11] | 1.14
same | glycan array binding signal (z-score) | [12] | -0.275

# — the supplement of paper PMC8728848
